PubChem BioAssay AID1259277, Sanger Institute | 2017
This is one part, drawn at random, of 160 deposited reagents. 48 of all reagents (30%) were called active. 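Calls refer to individual siRNAs; confirming a gene required at least two siRNAs in multiple cell lines.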 Unmarked entries are inactive. Reagents against one gene are numbered here. Not all columns of the deposit are shown. Not stated in the record: the amount of reagent, the time to read-out.

Screen: 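Kinase knock-downs that strengthen cell killing by anchor cancer drugs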 (follow-up of hits)
Cells: LS123 human colorectal cancer cells
Reagent: single siRNA against human genes
Treatment: anchor drug BYL719 at 1 µM, cetuximab at 5 µg/ml or trametinib at 10 nM, or DMSO vehicle only, given one day after siRNA delivery
Read-out: 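Replicate-averaged viability normalised to non-targeting pool 2 siRNA, and a synergy score contrasting observed combination viability with single siRNA and single drug effects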
Direction: synergy score with trametinib: higher = stronger synergistic killing with trametinib; synergy score with BYL719: higher = stronger synergistic killing with BYL719; synergy score with cetuximab: higher = stronger synergistic killing with cetuximab
Rule for the call: 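An siRNA counts as active when its synergy score is above 0.10 with one or more anchor drugs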
Calls: active = synergy with at least one anchor drug; inactive = no synergy with any anchor drug

| gene | siRNA no. | synergy score with trametinib | synergy score with BYL719 | synergy score with cetuximab |
| --- | --- | --- | --- | --- |
| MAPK4 | 1 | -0.128 | -0.251 | -0.206 |
| MAPK4 | 2 | -0.0994 | -0.174 | -0.0951 |
| MAPK4 | 3 | 0.0583 | -0.0826 | 0.0707 |
| MAPK4 | 4 | 0.0471 | -0.0537 | -0.0528 |
| EPHA6 | 1 | 0.0572 | -0.119 | -0.164 |
| EPHA6 | 2 | -0.0153 | -0.137 | -0.124 |
| EPHA6 | 3 | -0.00541 | -0.138 | -0.0649 |
| EPHA6 | 4 | -0.0199 | -0.183 | -0.173 |
| KCNH8 | 1 | 0.182 (active) | -0.199 | -0.0953 |
| KCNH8 | 2 | 0.0635 | -0.2 | -0.0514 |
| KCNH8 | 3 | 0.154 (active) | -0.205 | -0.108 |
| KCNH8 | 4 | 0.159 (active) | 0.0147 | 0.148 |
| PRAG1 | 1 | 0.163 (active) | -0.0493 | 0.0212 |
| PRAG1 | 2 | 0.242 (active) | 0.161 | -0.0883 |
| PRAG1 | 3 | -0.227 | -0.0473 | -0.111 |
| PRAG1 | 4 | -0.00096 | -0.06 | -0.0559 |
| SYNCRIP | 1 | 0.0308 | -0.117 | -0.0366 |
| SYNCRIP | 2 | -0.0191 | -0.312 | -0.118 |
| SYNCRIP | 3 | 0.0534 | 0.0153 | 0.0592 |
| SYNCRIP | 4 | -0.176 | -0.132 | -0.134 |
| CHD4 | 1 | -0.123 | -0.0573 | -0.171 |
| CHD4 | 2 | 0.0908 (active) | -0.0247 | 0.102 |
| CHD4 | 3 | 0.212 (active) | 0.0452 | 0.0751 |
| CHD4 | 4 | 0.147 (active) | -0.0505 | 0.0812 |
| PIK3CA | 1 | 0.121 (active) | 0.00954 | 0.00693 |
| PIK3CA | 2 | -0.105 | -0.226 | -0.0618 |
| PIK3CA | 3 | 0.106 (active) | -0.149 | -0.0976 |
| PIK3CA | 4 | -0.0191 | -0.274 | -0.316 |
| MAPKAPK2 | 1 | -0.212 (active) | 0.126 | -0.118 |
| MAPKAPK2 | 2 | -0.0416 | -0.274 | -0.0831 |
| MAPKAPK2 | 3 | 0.0531 | -0.108 | 0.0119 |
| MAPKAPK2 | 4 | 0.0109 | -0.113 | -0.137 |
| CAMK2N1 | 1 | -0.386 | -0.296 | -0.304 |
| CAMK2N1 | 2 | -0.159 | -0.215 | -0.103 |
| CAMK2N1 | 3 | -0.211 | -0.204 | -0.165 |
| CAMK2N1 | 4 | -0.0692 | -0.0611 | -0.0114 |
| MPP3 | 1 | 0.079 | -0.165 | -0.118 |
| MPP3 | 2 | 0.0682 | -0.0406 | -0.0736 |
| MPP3 | 3 | 0.316 (active) | 0.159 | -0.0232 |
| MPP3 | 4 | 0.202 (active) | 0.0565 | 0.136 |

Ordered by “synergy score with trametinib” (highest first): some entries from above
| gene | siRNA no. | synergy score with trametinib | synergy score with BYL719 | synergy score with cetuximab |
| --- | --- | --- | --- | --- |
| SYNCRIP | 3 | 0.0534 | 0.0153 | 0.0592 |
| SYNCRIP | 1 | 0.0308 | -0.117 | -0.0366 |
| SYNCRIP | 2 | -0.0191 | -0.312 | -0.118 |

Additional results:
| gene | siRNA no. | synergy score with trametinib | synergy score with BYL719 | synergy score with cetuximab |
| --- | --- | --- | --- | --- |
| CDKN2D | 1 | 0.0305 | -0.166 | -0.283 |
| CDKN2D | 2 | -0.056 | -0.102 | -0.124 |
| CDKN2D | 3 | 0.0255 | -0.177 | -0.0205 |
| CDKN2D | 4 | -0.0525 | -0.0732 | -0.127 |
| ACVR1 | 1 | 0.223 (active) | -0.233 | -0.118 |
| ACVR1 | 2 | 0.0726 | -0.292 | -0.135 |
| ACVR1 | 3 | 0.0115 | -0.0392 | -0.0147 |
| ACVR1 | 4 | 0.108 (active) | 0.0177 | -0.0468 |
| RPS6KA4 | 1 | 0.0998 | -0.262 | -0.0431 |
| RPS6KA4 | 2 | -0.0301 | -0.0254 | -0.0598 |
| RPS6KA4 | 3 | 0.175 (active) | -0.000993 | 0.0734 |
| RPS6KA4 | 4 | 0.0226 | -0.155 | 0.0535 |
| CDK6 | 1 | -0.0491 | -0.0961 | -0.118 |
| CDK6 | 2 | -0.0133 | -0.228 | -0.143 |
| CDK6 | 3 | 0.0413 | -0.165 | -0.0785 |
| CDK6 | 4 | 0.0601 | -0.0668 | -0.00708 |
| PLK1 | 1 | -0.00823 | -0.146 | -0.0358 |
| PLK1 | 2 | 0.00483 | -0.0763 | 0.0926 |
| PLK1 | 3 | 0.0813 | -0.0706 | 0.00994 |
| PLK1 | 4 | -0.0998 | -0.334 | -0.0341 |
| SF3B1 | 1 | -0.125 | -0.0908 | -0.117 |
| SF3B1 | 2 | -0.106 | -0.225 | -0.0962 |
| SF3B1 | 3 | -0.0666 | -0.146 | 0.00436 |
| SF3B1 | 4 | -0.00311 | -0.0678 | -0.0188 |
